For some assays here: A negative result means that nothing was seen under these conditions. For some assays here: The comparison behind a weaker result is the experiment's own reference, which may not be listed here. For some assays here: For at least one entry, the source does not settle the construct or the ends of the probe.
Legend:
[1] = target: AimR K29D (Bacillus phage SPbeta) (UniProt O64094); experiment: EMSA; conditions: EMSA: 25 mM Tris-HCl pH 8.0, 150 mM NaCl, 5 mM MgCl2, 5 mM DTT, 0.1 mg/ml BSA, 10% glycerol, 50 ug/ml salmon sperm DNA, 4 C, 15 min; recombinant protein; residues 1-386; protein details: 6xHis removed by drICE
[2] = target: AimR R82D (Bacillus phage SPbeta) (UniProt O64094); experiment: EMSA; conditions: EMSA: 25 mM Tris-HCl pH 8.0, 150 mM NaCl, 5 mM MgCl2, 5 mM DTT, 0.1 mg/ml BSA, 10% glycerol, 50 ug/ml salmon sperm DNA, 4 C, 15 min; recombinant protein; residues 1-386; protein details: 6xHis removed by drICE
[3] = target: AimR K145D (Bacillus phage SPbeta) (UniProt O64094); experiment: EMSA; conditions: EMSA: 25 mM Tris-HCl pH 8.0, 150 mM NaCl, 5 mM MgCl2, 5 mM DTT, 0.1 mg/ml BSA, 10% glycerol, 50 ug/ml salmon sperm DNA, 4 C, 15 min; recombinant protein; residues 1-386; protein details: 6xHis removed by drICE
[4] = target: AimR K43D (Bacillus phage SPbeta) (UniProt O64094); experiment: EMSA; conditions: EMSA: 25 mM Tris-HCl pH 8.0, 150 mM NaCl, 5 mM MgCl2, 5 mM DTT, 0.1 mg/ml BSA, 10% glycerol, 50 ug/ml salmon sperm DNA, 4 C, 15 min; recombinant protein; residues 1-386; protein details: 6xHis removed by drICE
[5] = target: AimR N109D (Bacillus phage SPbeta) (UniProt O64094); experiment: EMSA; conditions: EMSA: 25 mM Tris-HCl pH 8.0, 150 mM NaCl, 5 mM MgCl2, 5 mM DTT, 0.1 mg/ml BSA, 10% glycerol, 50 ug/ml salmon sperm DNA, 4 C, 15 min; recombinant protein; residues 1-386; protein details: 6xHis removed by drICE
[6] = target: AimR K79D (Bacillus phage SPbeta) (UniProt O64094); experiment: EMSA; conditions: EMSA: 25 mM Tris-HCl pH 8.0, 150 mM NaCl, 5 mM MgCl2, 5 mM DTT, 0.1 mg/ml BSA, 10% glycerol, 50 ug/ml salmon sperm DNA, 4 C, 15 min; recombinant protein; residues 1-386; protein details: 6xHis removed by drICE
[7] = target: AimR (Bacillus phage SPbeta) (UniProt O64094); experiment: EMSA; conditions: arbitrium peptide GMPRGA; EMSA: 25 mM Tris-HCl pH 8.0, 150 mM NaCl, 5 mM MgCl2, 5 mM DTT, 0.1 mg/ml BSA, 10% glycerol, 50 ug/ml salmon sperm DNA, 4 C, 15 min; recombinant protein; residues 1-386; protein details: C-terminal 8xHis
[8] = target: AimR-V129C C71S,C107S,C213S,C275S,C304S,C347S,V129C (Bacillus phage SPbeta) (UniProt O64094); experiment: smFRET competition; conditions: 1 uM arbitrium peptide GMPRGA + 1 uM DNA, high-FRET (DNA-binding) species ~6%; EMSA: 25 mM Tris-HCl pH 8.0, 150 mM NaCl, 5 mM MgCl2, 5 mM DTT, 0.1 mg/ml BSA, 10% glycerol, 50 ug/ml salmon sperm DNA, 4 C, 15 min; recombinant protein; residues 1-386

Sequence | binding result [1] | binding result [2] | binding result [3] | binding result [4] | binding result [5] | binding result [6] | binding result [7] | binding result [8]
ACTTAAATATTAGGTTTTAATAACATCTAGT (double strand) [31 bp aimX-upstream palindromic DNA] | binds more weakly | binds more weakly | binds more weakly | binds more weakly | binds more weakly | binds more weakly | no binding | 
ATCACTTAAATATTAGGTTTTAATAACATCTAGTGAT (double strand) [37 bp DNA] |  |  |  |  |  |  |  | binds more weakly

Source: PMC6536502
